From PubChem BioAssay AID2685 (National Center for Advancing Translational Sciences (NCATS), 2010)
The list shows a part of the results. Shown are side measurements of this screen, not its main read-out; they come without a call. Compounds called inactive in the main read-out are mostly missing here. The note in brackets gives the kind of curve behind each potency; many fits are weak.

Assay: qHTS Assay for Lipid Storage Modulators in Drosophila S3 Cells;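 as to cell number change: cells counted by Cell Tracker Red CMTPX staining in the red channel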
Details: BODIPY lipid droplet fluorescence, 18-24 h; for cell number change: measured here: cell count max response, cells fed with added oleic acid
How it was run: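 Laser-scanning cytometry quantifies lipid droplet accumulation (500–530 nm total intensity; droplet/cell object ratio) in oleic acid-fed (400 uM added) Drosophila S3 cells treated with a concentration series. 20 uM Triacsin C defined 100% inhibition.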

[1] = measured here: lipid fluorescence (Fed channel) AC50, cells fed with added oleic acid
[2] = measured here: cell number channel AC50, cells fed with added oleic acid

Row | Compound | cell number change [%] | AC50 [1] | AC50 [2]
1 | O=C(NCCc1cscn1)C1CCC(=O)N(Cc2ccc(Cl)cc2)C1 (configuration not stated) | 20.5 | 5.17 µM [falling, single point] | –
2 | Cn1ncc(Cl)c1C(=O)N1CCc2ccccc21 | -30.5 | – | 18.4 µM [falling, single point]
3 | CC(=O)Nc1ccc(NC(=O)C(C)OC(=O)c2oc3ccccc3c2C)cc1 (configuration not stated) | 12.2 | 20.6 µM [falling, single point] | –
4 | CCCCc1c(C)c(C#N)c2nc3ccccc3n2c1NCCN(C)C | 37.5 | – | 1.46 µM [rising, full curve]
5 | CN(/C(=N\S(=O)(=O)c1ccccc1)c1ccccc1)c1ccc(O)cc1 | -15.2 | 16.4 µM [falling, single point] | –
6 | CCCCn1c(N)c(N(CC)C(=O)c2cc(OC)cc(OC)c2)c(=O)[nH]c1=O | 32.2 | – | 29.1 µM [rising, single point]
7 | O=C(Nc1cccc([N+](=O)[O-])c1)c1cccc(C(=O)Nc2cccc([N+](=O)[O-])c2)c1 | -34.1 | 32.6 µM [falling, single point] | 25.9 µM [falling, single point]
8 | O=C(Nc1ccc2c(c1)CCC2)c1cnn2c1NC(c1ccco1)CC2C(F)(F)F (configuration not stated) | -91.3 | 29.1 µM [falling, single point] | 18.4 µM [falling, single point]
9 | Cc1ccc(/C=N/NC(=O)c2ccoc2C)o1 | -45.8 | 0.651 µM [falling, partial curve, poor fit] | 10.3 µM [falling, partial curve]
10 | N#C/C(=C\c1c[nH]c2ccc(Br)cc12)c1ccccn1 | 81.1 | – | 20.6 µM [rising, single point]
11 | CCOC(=O)Cn1nc(C)n(-c2ccc(Cl)cc2)c1=O | 12.4 | 0.794 µM [falling, single point] | –
12 | CCc1cc(C(=O)N/N=C/c2ccc(O)cc2O)c2ccccc2n1 | -27.6 | 29.1 µM [falling, single point] | –
13 | O=c1oc(Nc2cccc(Cl)c2)nc2ccccc12 | -37.1 | – | 4.61 µM [falling, full curve]
14 | CCOc1ccc(NC(=O)N2CCC(n3nnc4cc(C)ccc43)CC2)cc1 | – | 5.17 µM [rising, partial curve] | 3.26 µM [rising, partial curve]
15 | OC(C#CCN1CCCC1)(c1ccccc1)c1cccc(F)c1 (configuration not stated) | 9.28 | – | –
16 | CCc1cc2c(SCC(=O)c3cccs3)ncnc2s1 | 59.8 | 0.651 µM [falling, single point] | 29.1 µM [rising, single point]
17 | Cc1c(C(=O)Nc2c(F)cc(F)cc2Br)sc2ncn(CC(=O)N3CCCC3)c(=O)c12 | -15.5 | – | –
18 | O=C(NCCn1cc(SCc2ccccc2F)c2ccccc21)c1c(F)cccc1F | -32.7 | 8.2 µM [falling, partial curve] | 4.61 µM [falling, full curve, poor fit]

Look-ups from the entries so far:
cell number change [%] with Cn1ncc(Cl)c1C(=O)N1CCc2ccccc21 reads -30.5
AC50 [2] with CCCCn1c(N)c(N(CC)C(=O)c2cc(OC)cc(OC)c2)c(=O)[nH]c1=O reads 29.1 µM [rising, single point]

(further entries)

Row | Compound | cell number change [%] | AC50 [1] | AC50 [2]
19 | CCOC(=O)c1nn(-c2ccccc2)c2nc(Nc3ccccc3)cc(=O)n12 | 13.2 | – | 3.26 µM [rising, single point]
20 | CC(OC(=O)C1CCN(S(=O)(=O)c2ccc3c(c2)OCCO3)CC1)C(=O)N(C)c1ccccc1 (configuration not stated) | 19.2 | – | 7.31 µM [rising, partial curve, poor fit]
21 | N#C/C(C(=O)c1ccccc1)=C1/SC=C(N)N1c1ccccc1 | -88.1 | 9.2 µM [falling, partial curve] | 29.1 µM [falling, single point]
22 | CC(=O)N1CCN(C(=O)c2cccc(S(=O)(=O)Nc3ccc(C)cc3)c2)CC1 | 8.13 | – | –
23 | CC(C)(C)C(=O)CSc1nc(N)cc(=O)[nH]1 | -48.5 | 18.4 µM [falling, single point] | 16.4 µM [falling, single point]
24 | Cc1ccc(S(=O)(=O)c2nc(S(C)(=O)=O)sc2N2CCC(O)CC2)cc1 | -21.1 | – | –
25 | COc1cccc(OCc2nnc(SCc3cc(=O)[nH]c4ccccc34)o2)c1 | – | 3.26 µM [rising, partial curve, poor fit] | –
26 | Cc1cc(NC(=O)CSc2nc3c(sc4ccccc43)c(=O)n2CCc2ccccc2)n[nH]1 | 1.56 | 0.517 µM [rising, full curve] | 0.731 µM [rising, full curve]
27 | COc1ccccc1C1=NOC(CN2C(=O)c3ccccc3S2(=O)=O)C1 (configuration not stated) | 52.4 | 29.1 µM [rising, single point] | 29.1 µM [rising, single point]
28 | CCN1C(=O)/C(=C2\SC(=S)N(NC(=O)c3cccnc3)C2=O)c2ccccc21 | -75.4 | 23.1 µM [falling, single point] | 23.1 µM [falling, single point]
29 | Cc1cc(NCc2ccccc2)nc2ccccc12 | -31.8 | 32.6 µM [falling, single point] | 29.1 µM [falling, single point]
30 | C/C=N\NC(=O)CNC(=O)CNC(=O)c1ccccc1 | – | – | 3.66 µM [rising, single point]
31 | COc1cc([N+](=O)[O-])ccc1NC(=O)Nc1nc2c(s1)CCCC2 | 15.1 | 0.291 µM [rising, full curve] | –
32 | O=S(=O)(NCCOc1cccc2cccnc12)c1ccc(F)cc1 | -0.992 | 11.6 µM [rising, partial curve] | –
33 | CN1c2ccccc2C(C)(C)C12C=Cc1cc(O)ccc1O2 (configuration not stated) | -79.4 | 20.6 µM [falling, partial curve] | 25.9 µM [falling, partial curve]
34 | CC(=O)N(c1ccc(C(F)(F)F)cc1)S(=O)(=O)c1ccc(N2C(=O)CCC2=O)cc1 | 17 | – | –
35 | Cc1cc(C(=O)COc2cc(F)ccc2[N+](=O)[O-])c(C)n1C1CC1 | 19.9 | 29.1 µM [rising, single point] | –
36 | O=C(Nc1nc2cc3c(cc2s1)OCCO3)c1ccc([N+](=O)[O-])o1 | -13 | 8.2 µM [falling, partial curve] | –

Sorted by formula weight (descending): some entries from above
Row | Compound | cell number change [%] | AC50 [1] | AC50 [2]
27 | COc1ccccc1C1=NOC(CN2C(=O)c3ccccc3S2(=O)=O)C1 (configuration not stated) | 52.4 | 29.1 µM [rising, single point] | 29.1 µM [rising, single point]
10 | N#C/C(=C\c1c[nH]c2ccc(Br)cc12)c1ccccn1 | 81.1 | – | 20.6 µM [rising, single point]
11 | CCOC(=O)Cn1nc(C)n(-c2ccc(Cl)cc2)c1=O | 12.4 | 0.794 µM [falling, single point] | –
